# The supplement of paper PMC8728848
# Some of the results follow.
# B1: PX14343E-bfa-545-24-545 (Bacteroides fragilis) (protein)
# chain: LDRYPQEELSDGSFWKTPDDANKVVSDLYGYLSTWDQDNDINSDNATMGIKWAAGNVSKGIYDPADQGWSGDYANVRQCNLILSKIDEIPDYPEADKTKALGQVYFFRAYIYFNLIRSFGDVPYIDKPLDLKDMEGITRMPRAEVYEKIMADFDKAIAALPTEWGASDYGRVTKGAAMAMKARAALYYGNWDTAATEAKNVMDLGLYELYDKDNTGKYAELFWEKADGCDEFILVTQFNYPDKTHYLMGWECFPTKGWGGMNPTQSLVDAFEDSEGAPISKSKIYDPTDPFKNRDPRLEVDILHDGEEMYGVTIKVAPLASSGSTGINQHNDATETGYYGQKWLDPSLDPLSDGWNMGKDWVHIRYAEVLLTYAEAKNELQGLDPEAFDAVNQVRRRVGMPELQNTDPSKPTYCATQDDLRQRIRNEWRVEFCLEGGKRMWDIRRWGIAKDVLNAPFEGLKYKIVDNPNDPDKKVDGGKMCILYQGDPIILSGSRYSDNNYLFPVPQSEIDLNPALTQNPGY
# Tests used:
# Experiment in all cases: glycan array binding signal (z-score within array); higher = stronger binding
# Conditions in all cases: glycan notation: IUPAC condensed, linker removed
# [1] = target: Fuc(a1-2)Gal
# How it was run: (§1)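 Glycan array data came from 3228 arrays in the Consortium for Functional Glycomics database, and only arrays with an available protein sequence were kept. Glycan names were put into IUPAC-condensed notation, and columns mapping to the same glycan were averaged. The binding signal is a within-array Z-score, averaged across arrays of one protein sequence run at different concentrations or buffers and across linkers. A negative Z-score can be read as non-binding.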
# [2] = target: Fuc(a1-2)Gal(b1-3)GalNAc
# How it was run: as §1
# [3] = target: Fuc(a1-2)Gal(b1-3)GalNAc(a1-3)[Fuc(a1-2)]Gal(b1-4)Glc
# How it was run: as §1
# [4] = target: Fuc(a1-2)Gal(b1-3)GalNAc(a1-3)[Fuc(a1-2)]Gal(b1-4)GlcNAc
# How it was run: as §1
# [5] = target: Fuc(a1-2)Gal(b1-3)GalNAc(b1-3)Gal
# How it was run: as §1
# [6] = target: Fuc(a1-2)Gal(b1-3)GalNAc(b1-3)Gal(a1-4)Gal(b1-4)Glc
# How it was run: as §1
# [7] = target: Fuc(a1-2)Gal(b1-3)GalNAc(b1-4)[Neu5Ac(a2-3)]Gal(b1-4)Glc
# How it was run: as §1
# [8] = target: Fuc(a1-2)Gal(b1-3)GlcNAc
# How it was run: as §1
# [9] = target: Fuc(a1-2)Gal(b1-3)GlcNAc(b1-2)Man(a1-3)[Fuc(a1-2)Gal(b1-3)GlcNAc(b1-2)Man(a1-6)]Man(b1-4)GlcNAc(b1-4)GlcNAc
# How it was run: as §1
# [10] = target: Fuc(a1-2)Gal(b1-3)GlcNAc(b1-2)Man(a1-3)[Fuc(a1-2)Gal(b1-3)GlcNAc(b1-2)Man(a1-6)]Man(b1-4)GlcNAc(b1-4)[Fuc(a1-6)]GlcNAc
# How it was run: as §1
# [11] = target: Fuc(a1-2)Gal(b1-3)GlcNAc(b1-3)Gal(b1-4)Glc
# How it was run: as §1
# [12] = target: Fuc(a1-2)Gal(b1-3)GlcNAc(b1-3)GalNAc
# How it was run: as §1
# [13] = target: Fuc(a1-2)Gal(b1-3)GlcNAc(b1-3)[Fuc(a1-2)Gal(b1-3)GlcNAc(b1-6)]GalNAc
# How it was run: as §1
# [14] = target: Fuc(a1-2)Gal(b1-3)GlcNAc(b1-3)[Gal(b1-4)GlcNAc(b1-6)]Gal(b1-4)Glc
# How it was run: as §1
# [15] = target: Fuc(a1-2)Gal(b1-3)GlcNAc(b1-3)[Neu5Ac(a2-6)Gal(b1-4)GlcNAc(b1-6)]Gal(b1-4)Glc
# How it was run: as §1
# [16] = target: Fuc(a1-2)Gal(b1-3)GlcNAc6S
# How it was run: as §1
# [17] = target: Fuc(a1-2)Gal(b1-3)[Fuc(a1-4)]GlcNAc
# How it was run: as §1
# [18] = target: Fuc(a1-2)Gal(b1-3)[Fuc(a1-4)]GlcNAc(b1-2)Man(a1-3)[Fuc(a1-2)Gal(b1-3)[Fuc(a1-4)]GlcNAc(b1-2)Man(a1-3)]Man(b1-4)GlcNAc(b1-4)GlcNAc
# How it was run: as §1
# [19] = target: Fuc(a1-2)Gal(b1-3)[Fuc(a1-4)]GlcNAc(b1-2)Man(a1-3)[Fuc(a1-2)Gal(b1-3)[Fuc(a1-4)]GlcNAc(b1-2)Man(a1-6)]Man(b1-4)GlcNAc(b1-4)[Fuc(a1-6)]GlcNAc(b1-4)[Fuc(a1-6)]GlcNAc
# How it was run: as §1
# [20] = target: Fuc(a1-2)Gal(b1-3)[Fuc(a1-4)]GlcNAc(b1-3)[Fuc(a1-3)[Gal(b1-4)]GlcNAc(b1-6)]Gal(b1-4)Glc
# How it was run: as §1
# [21] = target: Fuc(a1-2)Gal(b1-3)[Fuc(a1-4)]GlcNAc(b1-3)[Gal(b1-4)GlcNAc(b1-6)]Gal(b1-4)Glc
# How it was run: as §1
# [22] = target: Fuc(a1-2)Gal(b1-4)Glc
# How it was run: as §1
# [23] = target: Fuc(a1-2)Gal(b1-4)Glc6S
# How it was run: as §1
# [24] = target: Fuc(a1-2)Gal(b1-4)GlcNAc
# How it was run: as §1
# [25] = target: Fuc(a1-2)Gal(b1-4)GlcNAc(b1-2)Man
# How it was run: as §1
# [26] = target: Fuc(a1-2)Gal(b1-4)GlcNAc(b1-2)Man(a1-3)[Fuc(a1-2)Gal(b1-4)GlcNAc(b1-2)Man(a1-6)]Man(b1-4)GlcNAc(b1-4)GlcNAc
# How it was run: as §1
# [27] = target: Fuc(a1-2)Gal(b1-4)GlcNAc(b1-2)Man(a1-3)[Fuc(a1-2)Gal(b1-4)GlcNAc(b1-2)Man(a1-6)]Man(b1-4)GlcNAc(b1-4)[Fuc(a1-6)]GlcNAc
# How it was run: as §1
# [28] = target: Fuc(a1-2)Gal(b1-4)GlcNAc(b1-2)[Fuc(a1-2)Gal(b1-4)GlcNAc(b1-4)]Man(a1-3)[Fuc(a1-2)Gal(b1-4)GlcNAc(b1-2)Man(a1-6)]Man(b1-4)GlcNAc(b1-4)GlcNAc
# How it was run: as §1
# [29] = target: Fuc(a1-2)Gal(b1-4)GlcNAc(b1-3)Gal(b1-4)GlcNAc
# How it was run: as §1
# [30] = target: Fuc(a1-2)Gal(b1-4)GlcNAc(b1-3)Gal(b1-4)GlcNAc(b1-2)Man(a1-3)[Fuc(a1-2)Gal(b1-4)GlcNAc(b1-3)Gal(b1-4)GlcNAc(b1-2)Man(a1-6)]Man(b1-4)GlcNAc(b1-4)GlcNAc
# How it was run: as §1
# [31] = target: Fuc(a1-2)Gal(b1-4)GlcNAc(b1-3)Gal(b1-4)GlcNAc(b1-3)Gal(b1-4)GlcNAc
# How it was run: as §1
# [32] = target: Fuc(a1-2)Gal(b1-4)GlcNAc(b1-3)GalNAc
# How it was run: as §1
# [33] = target: Fuc(a1-2)Gal(b1-4)GlcNAc(b1-3)[Fuc(a1-2)Gal(b1-4)GlcNAc(b1-6)]GalNAc
# How it was run: as §1
# [34] = target: Fuc(a1-2)Gal(b1-4)GlcNAc(b1-3)[Fuc(a1-3)[Gal(b1-4)]GlcNAc(b1-6)]Gal(b1-4)Glc
# How it was run: as §1
# [35] = target: Fuc(a1-2)Gal(b1-4)GlcNAc(b1-6)GalNAc
# How it was run: as §1
# [36] = target: Fuc(a1-2)Gal(b1-4)GlcNAc6S
# How it was run: as §1
# [37] = target: Fuc(a1-2)Gal(b1-4)[Fuc(a1-3)]GlcNAc
# How it was run: as §1
# [38] = target: Fuc(a1-2)Gal(b1-4)[Fuc(a1-3)]GlcNAc(b1-2)Man(a1-3)[Fuc(a1-2)Gal(b1-4)[Fuc(a1-3)]GlcNAc(b1-2)Man(a1-6)]Man(b1-4)GlcNAc(b1-4)[Fuc(a1-6)]GlcNAc
# How it was run: as §1
# [39] = target: Fuc(a1-2)Gal(b1-4)[Fuc(a1-3)]GlcNAc(b1-2)[Fuc(a1-2)Gal(b1-4)[Fuc(a1-3)]GlcNAc(b1-4)]Man(a1-3)[Fuc(a1-2)Gal(b1-4)[Fuc(a1-3)]GlcNAc(b1-2)Man(a1-6)]Man(b1-4)GlcNAc(b1-4)GlcNAc
# How it was run: as §1
# [40] = target: Fuc(a1-2)Gal(b1-4)[Fuc(a1-3)]GlcNAc(b1-3)Gal(b1-4)[Fuc(a1-3)]GlcNAc
# How it was run: as §1
# [41] = target: Fuc(a1-2)Gal(b1-4)[Fuc(a1-3)]GlcNAc(b1-3)Gal(b1-4)[Fuc(a1-3)]GlcNAc(b1-3)Gal(b1-4)[Fuc(a1-3)]GlcNAc
# How it was run: as §1
# [42] = target: Fuc(a1-2)Gal(b1-4)[Fuc(a1-3)]GlcNAc(b1-3)GalNAc
# How it was run: as §1
# [43] = target: Fuc(a1-2)Gal(b1-4)[Fuc(a1-3)]GlcNAc(b1-3)[Neu5Ac(a2-6)Gal(b1-4)GlcNAc(b1-6)]Gal(b1-4)Glc
# How it was run: as §1
# [44] = target: Fuc(a1-2)Gal3S(b1-4)GlcNAc
# How it was run: as §1
# [45] = target: Fuc(a1-2)Gal6S(b1-3)GlcNAc
# How it was run: as §1
binder,measurement,setting,value
B1,glycan array binding signal (z-score),[1],0.233
same,glycan array binding signal (z-score),[2],-0.235
same,glycan array binding signal (z-score),[3],-0.518
same,glycan array binding signal (z-score),[4],-0.544
same,glycan array binding signal (z-score),[5],-0.378
same,glycan array binding signal (z-score),[6],-0.281
same,glycan array binding signal (z-score),[7],1.11
same,glycan array binding signal (z-score),[8],-0.42
same,glycan array binding signal (z-score),[9],1.47
same,glycan array binding signal (z-score),[10],-0.01
same,glycan array binding signal (z-score),[11],-0.246
same,glycan array binding signal (z-score),[12],-0.544
same,glycan array binding signal (z-score),[13],0.134
same,glycan array binding signal (z-score),[14],-0.399
same,glycan array binding signal (z-score),[15],0.185
same,glycan array binding signal (z-score),[16],0.538
same,glycan array binding signal (z-score),[17],-0.113
same,glycan array binding signal (z-score),[18],-0.17
same,glycan array binding signal (z-score),[19],-0.003
same,glycan array binding signal (z-score),[20],-0.77
same,glycan array binding signal (z-score),[21],-1.07
same,glycan array binding signal (z-score),[22],0.538
same,glycan array binding signal (z-score),[23],0.236
same,glycan array binding signal (z-score),[24],-0.649
same,glycan array binding signal (z-score),[25],-0.116
same,glycan array binding signal (z-score),[26],1.42
same,glycan array binding signal (z-score),[27],0.488
same,glycan array binding signal (z-score),[28],-0.211
same,glycan array binding signal (z-score),[29],-0.229
same,glycan array binding signal (z-score),[30],0.227
same,glycan array binding signal (z-score),[31],-0.411
same,glycan array binding signal (z-score),[32],-0.093
same,glycan array binding signal (z-score),[33],-0.256
same,glycan array binding signal (z-score),[34],-0.108
same,glycan array binding signal (z-score),[35],-0.233
same,glycan array binding signal (z-score),[36],-0.655
same,glycan array binding signal (z-score),[37],-0.665
same,glycan array binding signal (z-score),[38],0.859
same,glycan array binding signal (z-score),[39],0.576
same,glycan array binding signal (z-score),[40],-0.32
same,glycan array binding signal (z-score),[41],-0.407
same,glycan array binding signal (z-score),[42],2.28
same,glycan array binding signal (z-score),[43],-0.594
same,glycan array binding signal (z-score),[44],-0.775
same,glycan array binding signal (z-score),[45],-0.205

# Part of the list above, with bars between the fields.
binder | measurement | setting | value
B1 | glycan array binding signal (z-score) | [25] | -0.116
same | glycan array binding signal (z-score) | [26] | 1.42
same | glycan array binding signal (z-score) | [27] | 0.488
